For assay [1], the target named is T1, recombinant 6x-His-PfPFD3 (Plasmodium falciparum 3D7 prefoldin subunit 3) (Plasmodium falciparum 3D7) (UniProt Q8IBR6).
T1 sequence (chain, RED-NHS dye label (where it was the labelled partner in MST)): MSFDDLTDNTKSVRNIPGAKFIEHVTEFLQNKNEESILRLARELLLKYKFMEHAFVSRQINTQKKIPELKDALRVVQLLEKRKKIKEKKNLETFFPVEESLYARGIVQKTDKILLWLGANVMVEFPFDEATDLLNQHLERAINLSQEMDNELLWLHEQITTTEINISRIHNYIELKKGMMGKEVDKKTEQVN
Description: MST.

In assay [2] the target is recombinant 6x-His-PfPFD6 (Plasmodium falciparum 3D7 prefoldin subunit 6) (Plasmodium falciparum 3D7) (UniProt Q8I3Y6). Description: ELISA.

No constants are given. Whether binding was seen depends on the method and setting. Binding calls can cover weak binding; strength is not graded here. For some assays here: Where a sequence is shown, tags or fusion partners need not be part of it.

In doi:10.1101/2022.09.17.508354 one finds binding data, which are given here for two substances.

Consider “recombinant 6x-His-PfPFD1 (Plasmodium falciparum 3D7 prefoldin subunit 1) (from UniProt Q8IIS7)”, for which the binding entry in assay [1] is “binds”.
As for “Pfα-tubulin-I (protein used in ELISA and SPR) (from UniProt Q6ZLZ9 1-453)”, the binding entry in assay [2] is reported as “binds”.
